This passage reports step yield results from patent US6593300B1 (Gyogyszerkutato Intezet Kft., priority 1997, dated 2003).

A short description of one series: general procedure: solution-phase peptide synthesis; dicyclohexylcarbodiimide / N-hydroxy-benzotriazole. The following applies: coupling step.
As to “(3R)-3-(Acetyl-L-tyrosyl-L-isoleucyl-L-alanyl-amino)-4-t-butoxycarbonyl-butyraldehyde Diethyl Acetal”, the step yield came out at 96%. Regarding “(3R)-3-(L-Lactyl-L-tyrosyl-L-isoleucyl-L-alanyl-amino)-4-t-butoxycarbonyl-butyraldehyde Diethyl Acetal”, the step yield is recorded as 30%. The substance “(3R)-3-(Ethoxycarbonyl-L-tyrosyl-L-isoleucyl-L-alanylamino)-4-t-butoxycarbonyl-butyraldehyde-diethyl Acetal” returned a step yield of 73%.

The same series, now with this note: late stage modification step.
Substance “(3R)-3-(L-Lactyl-L-tyrosyl-L-isoleucyl-L-alanylamino)-4-carboxy-butyraldehyde” displayed a step yield of 42%. “(3R)-3-(Ethoxycarbonyl-L-tyrosyl-L-isoleucyl-L-alanylamino)-4-carboxybutyraldehyde” had a step yield of 87%. On the same count and under the same terms, the figure for “(3R)-3-(Acetyl-L-tyrosyl-L-isoleucyl-L-alanylamino)-4-carboxybutyraldehyde” is 95%; for “(3R) -(Acetyl-L-tyosyl-L-valyl-L-alanylamino)-4-carboxybutyraidehyde” it is 95%.
